# PubChem BioAssay AID1259278 | Sanger Institute – 2017
# Test: 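Follow-up of kinome siRNA hits that combine with three anchor drugs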 (follow-up of hits)
# Cells: human HT55 colorectal cancer cells
# Knock-down reagent: single siRNA against human genes
# Conditions: anchor drugs added to knock-down cells: cetuximab 5 µg/ml, trametinib 10 nM or BYL719 1 µM, against DMSO vehicle; chosen to hurt viability little alone
# Measured: 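Viability averaged against the control control pool 2 (non-targeting), plus a synergy score of knock-down with drug for each anchor drug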
# Direction: synergy score with BYL719 and synergy score with cetuximab and synergy score with trametinib: higher = stronger combined killing with knock-down
# Active means: 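a knock-down is called active when its synergy score is above 0.10 for one or more anchor drugs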
# Meaning of the calls: active = synergy with an anchor drug; inactive = no synergy
# The deposit covers 160 reagents; shown is a part drawn at random. Of all reagents, 54 (34%) got an active call. 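Each call rests on one siRNA duplex in one cell line; gene-level support needs several duplexes and lines.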 Unmarked entries are inactive. Reagents against one gene are numbered here. Not all columns of the deposit are shown. Not given: the amount of reagent, the time to read-out.
synergy score with BYL719,synergy score with cetuximab,synergy score with trametinib,gene,reagent
-0.0422 (active),0.154,0.0611,MAPK4 (mitogen-activated protein kinase 4),1
0.0428 (active),0.123,0.143,MAPK4 (mitogen-activated protein kinase 4),2
-0.0274 (active),0.188,0.0696,MAPK4 (mitogen-activated protein kinase 4),3
-0.158,-0.0409,-0.034,MAPK4 (mitogen-activated protein kinase 4),4
-0.00468,-0.0012,-0.0829,MAPKAPK2 (MAPK activated protein kinase 2),1
-0.23,-0.169,-0.242,MAPKAPK2 (MAPK activated protein kinase 2),2
0.0191,0.0862,-0.0108,MAPKAPK2 (MAPK activated protein kinase 2),3
0.0772 (active),0.108,-0.00201,MAPKAPK2 (MAPK activated protein kinase 2),4
-0.131,0.0198,0.0723,SYK (spleen associated tyrosine kinase),1
-0.256,0.0486,-0.0386,SYK (spleen associated tyrosine kinase),2
-0.192,-0.0673,0.0915,SYK (spleen associated tyrosine kinase),3
-0.331,-0.1,-0.154,SYK (spleen associated tyrosine kinase),4
-0.141,0.0372,-0.0189,CRIM1 (cysteine rich transmembrane BMP regulator 1),1
-0.103,0.0962,-0.0191,CRIM1 (cysteine rich transmembrane BMP regulator 1),2
-0.287,0.0177,-0.092,CRIM1 (cysteine rich transmembrane BMP regulator 1),3
-0.0431,0.0763,0.0552,CRIM1 (cysteine rich transmembrane BMP regulator 1),4
-0.0779,0.0874,0.0364,COASY (Coenzyme A synthase),1
-0.0284,-0.0501,-0.067,COASY (Coenzyme A synthase),2
-0.0207,0.0329,-0.0483,COASY (Coenzyme A synthase),3
-0.107,-0.128,-0.0816,COASY (Coenzyme A synthase),4
0.127 (active),0.0742,0.159,CDK6 (cyclin dependent kinase 6),1
-0.036,-0.00834,0.025,CDK6 (cyclin dependent kinase 6),2
-0.157 (active),-0.118,0.112,CDK6 (cyclin dependent kinase 6),3
-0.293 (active),0.261,0.195,CDK6 (cyclin dependent kinase 6),4

In a second layout: entries from further up
{"gene":"MAPKAPK2 (MAPK activated protein kinase 2)","reagent":3,"synergy score with BYL719":0.0191,"synergy score with cetuximab":0.0862,"synergy score with trametinib":-0.0108}
{"gene":"MAPKAPK2 (MAPK activated protein kinase 2)","reagent":4,"synergy score with BYL719":"0.0772 (active)","synergy score with cetuximab":0.108,"synergy score with trametinib":-0.00201}

The results go on:
synergy score with BYL719,synergy score with cetuximab,synergy score with trametinib,gene,reagent
-0.0277,0.0724,0.0256,"BRAF (B-Raf proto-oncogene, serine/threonine kinase)",1
-0.0612,0.00592,0.0908,"BRAF (B-Raf proto-oncogene, serine/threonine kinase)",2
-0.104 (active),0.0312,0.107,"BRAF (B-Raf proto-oncogene, serine/threonine kinase)",3
-0.0495,-0.0874,0.0541,"BRAF (B-Raf proto-oncogene, serine/threonine kinase)",4
-0.0311,0.0435,0.035,KCNH8 (potassium voltage-gated channel subfamily H member 8),1
0.0877 (active),0.182,0.135,KCNH8 (potassium voltage-gated channel subfamily H member 8),2
0.045 (active),0.0192,0.187,KCNH8 (potassium voltage-gated channel subfamily H member 8),3
-0.0131,0,0.0498,KCNH8 (potassium voltage-gated channel subfamily H member 8),4
-0.0702,0.0393,0.0329,CSNK2A2 (casein kinase 2 alpha 2),1
-0.201,0.0174,0.0489,CSNK2A2 (casein kinase 2 alpha 2),2
-0.13 (active),0.161,0.107,CSNK2A2 (casein kinase 2 alpha 2),3
-0.072 (active),0.108,0.0271,CSNK2A2 (casein kinase 2 alpha 2),4
0.0106 (active),0.0328,0.191,HSPB8 (heat shock protein family B (small) member 8),1
-0.0934,-0.0782,-0.0703,HSPB8 (heat shock protein family B (small) member 8),2
-0.286,-0.0567,0.032,HSPB8 (heat shock protein family B (small) member 8),3
-0.321 (active),0.189,0.212,HSPB8 (heat shock protein family B (small) member 8),4
